PubChem BioAssay AID602196 – INSERM, 2012
The whole screen tested about 23,000 reagents; below is an unselected part. Over the whole deposit, 455 (2%) are marked active. 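Active includes both protection and sensitisation; some change values fall well beyond the stated -50 to +50 range.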 Entries without a mark were called inactive. Reagents against one gene are numbered here. Not all columns of the deposit are shown. Not stated in the record: the amount of reagent.

- Assay: 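Genes whose knock-down alters cisplatin killing of lung cancer cells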
- Cells: human A549 lung cancer cells
- Reagents: siRNA pair against human genes
- Timing: 48 h transfection before cisplatin; time from cisplatin to read-out not stated
- Treatment: cisplatin at a dose killing half of control-siRNA cells; exact dose and duration not given
- Detection: 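Shift in cisplatin death relative to control siRNA, from -50 (all cells die) to +50 (no cells die); siRNAs harmful on their own scored 0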
- Reading the numbers: two-siRNA summed score (-2 to +2): higher = both siRNAs protect from cisplatin killing; -2 means both sensitise
- Active means: 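Each siRNA scores 0 if harmful alone by LDH or WST-1, otherwise +1 if it reduces and -1 if it increases cisplatin killing; a gene is active when both siRNAs agree (sum +2 or -2)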
- Calls: active = both siRNAs shift cisplatin killing the same way; inactive = no consistent shift, or siRNA harmful alone

two-siRNA summed score (-2 to +2), by gene and reagent
CLEC4F: #1 0
LOC388959: #1 0
ZUP1: #1 1
AK4: #1 -1; #2 1
TGIF2: #1 0
RGS9: #1 0
NCOA4: #1 0
IL36RN: #1 0
DCAF8: #1 0
DOCK10: #1 -1
STX3: #1 0
B4GALT4: #1 0
LINC02145: #1 0
IL36G: #1 0
KCNQ5: #1 0
TMX1: #1 0

Targets above whose target name starts with L or l (2):
two-siRNA summed score (-2 to +2), by gene and reagent
LOC388959: #1 0
LINC02145: #1 0

The results go on.
two-siRNA summed score (-2 to +2), by gene and reagent
JPH1: #1 0
ITPRID2: #1 0
SRPX2: #1 0
HYI: #1 -1
MAGEA3: #1 0
LOC391797: #1 0
PADI2: #1 0
FAM170B: #1 0
TPD52L1: #1 0
LOC442513: #1 1
LINC01123: #1 0
OR5B3: #1 0
C6orf58: #1 1
C15orf40: #1 0
LOC440996: #1 0
ASIC4: #1 0
HEMK1: #1 -1
SEMA5A: #1 0
BBS7: #1 0
CNFN: #1 0
WDFY2: #1 0
GPR142: #1 -1
